Measurements published in article PMC12040169 (PLOS Biology, 2025).
The list shows a part of the results.

tested on: T1, CTL2-GFP (C. trachomatis L2/434/Bu, GFP-expressing); parameters: species or system HeLa; Intracellular C. trachomatis growth in HeLa cells, bulk GFP fluorescence relative to DMSO; conditions: bulk GFP, single well; 28.5 h, 10 µM; inhibitor
T1 construct: L2/434/Bu, GFP-expressing

Compound | % of control remaining [%]
O=C(NCCc1c[nH]c2ccccc12)N1CCN(Cc2ccccc2)CC1 [CBK155646] | 152.417
COCCN1C(=O)c2ccc(C(=O)Nc3cc(C(=O)O)cc(C(=O)O)c3)cc2C1=O [CBK268444] | 116.063
CN(C)c1ncc(-c2ccc(Cl)cc2)c(C2CCCN2C(=O)CN2CCCC2)n1 (centres unmarked) [CBK286037] | 136.275
CC(=O)N1CCC[C@H]2NC(=O)CNC(=O)C3(C/C=C/C[C@H]21)CCN(CC(N)=O)CC3 [CBK292135] | 140.329
COc1ccccc1OCC(=O)NCc1ccc(-c2csnn2)cc1 [CBK149303] | 118.167
CCOC(=O)c1cc(-c2cccc(Cl)c2)oc1C [CBK045775] | 157.8
COc1ccc(Cl)cc1S(=O)(=O)N(C)CC(=O)O [CBK269919] | 141.135
CCc1nc(CC(=O)NC(c2ccc(F)cc2)C2CCCO2)cs1 (centres unmarked) [CBK306336] | 86.1449
CC(=C\C(=O)O)/C(=C\c1ccc(Br)cc1)C(=O)O [CBK278280N] | 100
C=C1S/C(=N\c2cc(Cl)cc(Cl)c2)NC1(CC)CC [CBK009484] | 77.3869
COc1ccc2c(c1)C=C(/C=C/C1=CCN(C)CC1)CO2 [CBK283818] | 165.7
COC(=O)c1ccc(N2CCN(Cc3ccc(CO)o3)C(C)C2)cc1 (centres unmarked) [CBK305394] | 103.834
CC1(C)CCN(Cc2nnnn2-c2ccc(S(C)(=O)=O)cc2)C1 [CBK306179] | 115.884
O=C1NC(c2ccccc2)=NC1(NS(=O)(=O)c1ccccc1)C(F)(F)F (centres unmarked) [CBK267474] | 137.022
CCCC(=O)N1CCC(C(=O)Nc2ccccc2F)CC1 [CBK304346] | 134.583
CC(C)NC(=O)C1(Cc2ccccc2-c2ccncc2)CCOCC1 [CBK284786] | 138.507
CN1CCN(c2ccc([N+](=O)[O-])c(NCCCO)c2)CC1 [CBK261846C] | 100
CC(C)c1cc(C(=O)N2CCCCCC2c2cnn(C)c2)no1 (centres unmarked) [CBK284971] | 82.964
CS(=O)(=O)c1ccc(CNC(=O)C2(c3ccccc3)CCCC2)cc1 [CBK161524] | 124.317
COc1ccc(N2CCN(CCNC(=O)Nc3ccc(Cl)cc3)CC2)cc1 [CBK268725] | 138.454
Cn1cnc(C(=O)N2CC[C@H]3NC(=O)c4ccccc4OCCCCC[C@H]3C2)c1 [CBK292031] | 128.478
CN1CC(=O)N2CCOC(C2)c2cccc(n2)NC(=O)C/C=C/CC2(CCNCC2)C1=O (centres unmarked) [CBK292053] | 127.609
Cc1cccnc1NS(=O)(=O)c1cccs1 [CBK299775] | 185.309
CN(C)c1cccc(Oc2nc3c(c(=O)n(C)c(=O)n3C)n2C)c1 [CBK270109] | 139.359
CCc1c(C)nc2ccccc2c1SC[C@H](NC(C)=O)C(=O)O [CBK153459T] | 112.187

Compound | % of control remaining [%]
CCS(=O)(=O)c1ccc2cc(C(=O)O)[nH]c2c1 [CBK286951] | 112.208
O=C(O)C1C2C=CC(O2)C1C(=O)Nc1ccc2c(c1)OCO2 (centres unmarked) [CBK265475] | 92.7004
CNC(=O)N(O)C1N(NC(=O)Nc2ccccc2)C(=S)SC1(C)C (centres unmarked) [CBK261005] | 114.817
Cc1csc2ncc(C(=O)Nc3ccccc3C(F)(F)F)c(=O)n12 [CBK287456] | 105.333
O=c1c2ccccc2nc(CSc2ncnc3[nH]cnc23)n1-c1ccc(Cl)c(Cl)c1 [CBK217854] | 123.504
CCOc1ccc2[nH]c(=O)c(/C=C3\SC(=S)N(CCC(=O)O)C3=O)cc2c1 [CBK265213] | 100
COc1nnc(-c2ccc(N3CCOCC3)c(NC(=O)COc3cccc(C)c3)c2)c2ccccc12 [CBK266207] | 149.599
Cn1c(SCC(=O)Nc2ccnc3ccccc23)nnc1-c1ccncc1 [CBK267867] | 80.7389
COc1cc(OC)c(CN(C)CCN(C)C)cc1Br [CBK021255] | 102.082
CCNC(=O)C1(Cc2ccccc2-c2ccccc2)CCN(C(=O)c2ccccc2)CC1 [CBK285700] | 98.7631
O=c1cc(O)c2c(=O)n(-c3ccccc3)c(-c3ccccc3)cc2o1 [CBK006116] | 108.795
CC1=C(C)CC(C(=O)NC(C)CCc2ccccc2)C(C(=O)O)C1 (centres unmarked) [CBK265452] | 100
Cc1ccc(S(=O)(=O)Nn2cnnc2)cc1 [CBK027263] | 147.982
NC(=O)CN1C(=O)CO[C@H]2CN(Cc3ccccc3F)C[C@H]21 [CBK289693] | 100.2
O=C(NC(c1ccccc1)c1ccccn1)c1ccco1 (centres unmarked) [CBK144109] | 90.8313
Cc1nn(C(C)C)c(C)c1CN(Cc1ccccn1)Cc1ccco1 [CBK283221] | 83.8324
O=C(CSCc1nc2ccccc2[nH]1)Nc1ccc2ccccc2c1 [CBK263262] | 99.9535
c1ccc2cc(-c3cc(Nc4ccc(N5CCOCC5)cc4)ncn3)ccc2c1 [CBK090929] | 204.733
Cc1ccc(S(=O)(=O)NCC(=O)O)c2nsnc12 [CBK261140] | 110.97
COc1ccc(OC)c(C(=O)N2CCNC(=O)C2Cc2ccccc2-c2ccc(F)cc2)c1 (centres unmarked) [CBK285829] | 126.259
CC(C)(C)OC(=O)N1CCC2(CC1)NC(=O)c1cc(-c3cccnc3)ccc1O2 [CBK083517] | 79.7334
Cc1cc(C(=O)Nc2cc(-c3nc4ncccc4o3)ccc2Cl)ccc1[N+](=O)[O-] [CBK268700] | 118.257
COC(=O)Cn1c(=N)n(CCN2CCOCC2)c2ccccc21 [CBK262447B] | 107.75
Cc1cccc(C(=O)N2CCN(Cc3nc4ccccc4[nH]3)CC2)c1 [CBK304399] | 119.578
COCCN(Cc1cnn(C)c1)C(=O)Cc1ccccn1 [CBK306576] | 82.0918

Look-ups from the results shown.
CN1CC(=O)N2CCOC(C2)c2cccc(n2)NC(=O)C/C=C/CC2(CCNCC2)C1=O (centres unmarked) [CBK292053] – % of control remaining [%]: 127.609
CN(C)c1cccc(Oc2nc3c(c(=O)n(C)c(=O)n3C)n2C)c1 [CBK270109] – % of control remaining [%]: 139.359
CC1(C)CCN(Cc2nnnn2-c2ccc(S(C)(=O)=O)cc2)C1 [CBK306179] – % of control remaining [%]: 115.884
Cc1csc2ncc(C(=O)Nc3ccccc3C(F)(F)F)c(=O)n12 [CBK287456] – % of control remaining [%]: 105.333
